{"sequences": {"note": "Amino acid sequences for entries named in this document (tags omitted). Residues count along the entry.", "NANOG CTD (C-terminal domain) (Q9H9S0, residues 154-305)": "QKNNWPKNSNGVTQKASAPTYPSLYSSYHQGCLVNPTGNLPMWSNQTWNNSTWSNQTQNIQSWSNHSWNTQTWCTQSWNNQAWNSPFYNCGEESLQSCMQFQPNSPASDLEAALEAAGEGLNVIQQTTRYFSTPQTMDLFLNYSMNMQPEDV", "NANOG WR (tryptophan repeat domain) (Q9H9S0, residues 196-240)": "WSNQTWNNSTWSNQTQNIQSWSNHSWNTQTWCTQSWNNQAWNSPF"}, "source": "patent US20240383953A1", "about": "“NOVEL NAN[…] NANOG PRION-LIKE REPEATS” (BAYLOR COLLEGE OF MEDICINE, priority 2021, published 2024)", "key": {"[1]": {"target": "NANOG CTD (C-terminal domain) (human) (UniProt Q9H9S0)", "test": "SDD-AGE gels, stain-free and ThT-stained"}, "[2]": {"target": "NANOG CTD (C-terminal domain) (human) (UniProt Q9H9S0)", "test": "ThT fluorescence aggregation assay"}, "[3]": {"target": "NANOG WR (tryptophan repeat domain) (human) (UniProt Q9H9S0)", "test": "SDD-AGE gels, stain-free and ThT-stained"}}, "note": "Results are given in words; binding and its absence hold for the method and conditions named. Some binding calls cover weakened binding; strength is not graded here.", "data": [{"substance": "NANOG CTD (C-terminal domain) (from UniProt Q9H9S0 154-305)", "values": [{"measurement": "binding", "setting": "[1]", "value": "binds"}, {"measurement": "binding", "setting": "[2]", "value": "binds"}]}, {"substance": "NANOG WR (tryptophan repeat domain) (from UniProt Q9H9S0 196-240)", "values": [{"measurement": "binding", "setting": "[3]", "value": "binds"}]}]}
